# From the supplement of paper PMC12823440, “Inhibitors supercharge kinase turnover through native proteolytic circuits” (Nature, 2025)
# Chains of the proteins cited; added tags and fusions are not shown. Lines headed by an entry give the natural chain unless they say otherwise; changes in a name come on top.
# UniProt P07949, whole entry, looked up: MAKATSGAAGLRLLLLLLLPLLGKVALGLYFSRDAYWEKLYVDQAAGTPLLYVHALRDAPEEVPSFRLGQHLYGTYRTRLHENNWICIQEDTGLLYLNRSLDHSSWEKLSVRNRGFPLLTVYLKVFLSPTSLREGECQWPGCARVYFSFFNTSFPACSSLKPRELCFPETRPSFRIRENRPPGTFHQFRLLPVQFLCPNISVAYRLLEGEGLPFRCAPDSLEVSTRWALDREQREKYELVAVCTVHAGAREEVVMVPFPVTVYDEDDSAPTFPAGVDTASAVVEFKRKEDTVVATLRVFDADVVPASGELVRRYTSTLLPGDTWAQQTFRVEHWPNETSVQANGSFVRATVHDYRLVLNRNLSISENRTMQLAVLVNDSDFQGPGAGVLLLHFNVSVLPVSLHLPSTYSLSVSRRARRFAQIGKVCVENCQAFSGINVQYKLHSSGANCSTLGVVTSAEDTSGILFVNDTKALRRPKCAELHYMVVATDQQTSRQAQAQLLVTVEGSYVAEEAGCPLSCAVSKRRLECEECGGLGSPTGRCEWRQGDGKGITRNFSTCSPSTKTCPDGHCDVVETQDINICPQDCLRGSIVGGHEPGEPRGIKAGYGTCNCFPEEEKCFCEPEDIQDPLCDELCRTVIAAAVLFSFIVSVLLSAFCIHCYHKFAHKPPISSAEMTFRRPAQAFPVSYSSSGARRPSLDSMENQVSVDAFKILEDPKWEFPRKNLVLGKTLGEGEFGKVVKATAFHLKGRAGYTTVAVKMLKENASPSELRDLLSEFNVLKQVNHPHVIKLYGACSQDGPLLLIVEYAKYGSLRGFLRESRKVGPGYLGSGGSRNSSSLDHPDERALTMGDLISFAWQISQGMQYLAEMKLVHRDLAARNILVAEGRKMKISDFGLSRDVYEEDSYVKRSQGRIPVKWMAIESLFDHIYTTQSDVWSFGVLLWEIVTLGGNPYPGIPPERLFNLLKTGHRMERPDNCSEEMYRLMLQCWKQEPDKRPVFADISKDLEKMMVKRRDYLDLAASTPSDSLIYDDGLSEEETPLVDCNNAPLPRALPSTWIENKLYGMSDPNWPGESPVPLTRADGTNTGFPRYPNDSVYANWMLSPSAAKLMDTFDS
# UniProt P07949, whole entry M918T, looked up: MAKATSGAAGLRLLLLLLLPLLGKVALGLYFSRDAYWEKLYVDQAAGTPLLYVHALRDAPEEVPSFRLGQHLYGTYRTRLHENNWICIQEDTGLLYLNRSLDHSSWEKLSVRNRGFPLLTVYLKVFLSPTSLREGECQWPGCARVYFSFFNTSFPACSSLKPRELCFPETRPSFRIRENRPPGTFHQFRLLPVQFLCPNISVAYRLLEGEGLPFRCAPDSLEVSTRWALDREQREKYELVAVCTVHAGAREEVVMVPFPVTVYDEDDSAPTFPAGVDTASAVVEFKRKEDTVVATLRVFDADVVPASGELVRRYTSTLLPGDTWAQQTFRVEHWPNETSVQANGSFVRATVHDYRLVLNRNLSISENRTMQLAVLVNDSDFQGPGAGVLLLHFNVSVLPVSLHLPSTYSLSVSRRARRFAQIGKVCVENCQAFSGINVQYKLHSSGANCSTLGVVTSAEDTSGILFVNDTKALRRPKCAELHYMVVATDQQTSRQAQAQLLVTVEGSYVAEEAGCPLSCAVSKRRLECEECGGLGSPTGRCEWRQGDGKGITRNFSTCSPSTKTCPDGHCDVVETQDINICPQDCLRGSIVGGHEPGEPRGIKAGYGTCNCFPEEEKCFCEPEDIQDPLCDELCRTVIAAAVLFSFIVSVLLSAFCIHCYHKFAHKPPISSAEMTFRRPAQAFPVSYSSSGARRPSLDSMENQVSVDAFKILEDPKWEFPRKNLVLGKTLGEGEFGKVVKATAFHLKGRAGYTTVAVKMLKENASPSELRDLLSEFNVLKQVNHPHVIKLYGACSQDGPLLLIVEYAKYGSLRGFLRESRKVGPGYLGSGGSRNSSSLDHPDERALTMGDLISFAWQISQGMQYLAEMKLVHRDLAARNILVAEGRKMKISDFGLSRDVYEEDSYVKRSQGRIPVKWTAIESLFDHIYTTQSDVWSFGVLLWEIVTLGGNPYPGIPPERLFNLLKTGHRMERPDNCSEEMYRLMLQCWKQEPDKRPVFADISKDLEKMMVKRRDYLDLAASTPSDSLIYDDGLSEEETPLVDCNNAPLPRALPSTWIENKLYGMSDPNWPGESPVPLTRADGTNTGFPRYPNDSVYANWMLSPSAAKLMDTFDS
# UniProt Q9BRS2: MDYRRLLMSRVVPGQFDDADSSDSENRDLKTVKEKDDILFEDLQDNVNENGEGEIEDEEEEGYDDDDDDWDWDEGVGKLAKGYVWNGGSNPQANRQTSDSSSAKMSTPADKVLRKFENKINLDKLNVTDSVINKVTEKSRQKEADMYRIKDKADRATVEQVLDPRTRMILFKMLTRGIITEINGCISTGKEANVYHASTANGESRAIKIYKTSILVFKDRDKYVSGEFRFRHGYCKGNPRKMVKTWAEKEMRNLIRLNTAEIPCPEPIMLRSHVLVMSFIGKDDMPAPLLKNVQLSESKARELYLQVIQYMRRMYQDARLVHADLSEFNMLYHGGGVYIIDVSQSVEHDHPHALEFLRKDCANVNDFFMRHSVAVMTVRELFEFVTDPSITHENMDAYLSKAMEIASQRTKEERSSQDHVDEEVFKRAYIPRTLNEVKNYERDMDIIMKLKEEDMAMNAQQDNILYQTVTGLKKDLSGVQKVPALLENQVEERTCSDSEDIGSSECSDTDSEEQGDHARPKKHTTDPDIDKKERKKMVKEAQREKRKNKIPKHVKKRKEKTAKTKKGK
# UniProt Q13546: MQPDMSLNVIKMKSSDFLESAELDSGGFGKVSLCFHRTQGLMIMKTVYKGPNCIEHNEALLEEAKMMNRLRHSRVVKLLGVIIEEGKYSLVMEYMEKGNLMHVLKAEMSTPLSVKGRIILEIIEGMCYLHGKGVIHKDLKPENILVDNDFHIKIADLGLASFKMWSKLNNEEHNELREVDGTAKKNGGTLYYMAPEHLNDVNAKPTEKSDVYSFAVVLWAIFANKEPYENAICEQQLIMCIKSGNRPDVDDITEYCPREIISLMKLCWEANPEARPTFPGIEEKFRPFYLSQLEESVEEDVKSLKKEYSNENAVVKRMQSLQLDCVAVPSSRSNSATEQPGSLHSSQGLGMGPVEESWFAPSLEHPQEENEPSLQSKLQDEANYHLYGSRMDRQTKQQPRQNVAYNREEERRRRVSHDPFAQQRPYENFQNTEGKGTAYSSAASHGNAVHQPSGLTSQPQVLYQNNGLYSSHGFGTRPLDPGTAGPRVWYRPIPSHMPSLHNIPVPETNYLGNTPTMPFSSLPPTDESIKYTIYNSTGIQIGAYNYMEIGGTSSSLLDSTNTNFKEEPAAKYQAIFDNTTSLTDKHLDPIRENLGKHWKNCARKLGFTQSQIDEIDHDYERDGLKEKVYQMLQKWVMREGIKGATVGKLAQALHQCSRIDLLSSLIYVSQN
# UniProt Q01974, whole entry: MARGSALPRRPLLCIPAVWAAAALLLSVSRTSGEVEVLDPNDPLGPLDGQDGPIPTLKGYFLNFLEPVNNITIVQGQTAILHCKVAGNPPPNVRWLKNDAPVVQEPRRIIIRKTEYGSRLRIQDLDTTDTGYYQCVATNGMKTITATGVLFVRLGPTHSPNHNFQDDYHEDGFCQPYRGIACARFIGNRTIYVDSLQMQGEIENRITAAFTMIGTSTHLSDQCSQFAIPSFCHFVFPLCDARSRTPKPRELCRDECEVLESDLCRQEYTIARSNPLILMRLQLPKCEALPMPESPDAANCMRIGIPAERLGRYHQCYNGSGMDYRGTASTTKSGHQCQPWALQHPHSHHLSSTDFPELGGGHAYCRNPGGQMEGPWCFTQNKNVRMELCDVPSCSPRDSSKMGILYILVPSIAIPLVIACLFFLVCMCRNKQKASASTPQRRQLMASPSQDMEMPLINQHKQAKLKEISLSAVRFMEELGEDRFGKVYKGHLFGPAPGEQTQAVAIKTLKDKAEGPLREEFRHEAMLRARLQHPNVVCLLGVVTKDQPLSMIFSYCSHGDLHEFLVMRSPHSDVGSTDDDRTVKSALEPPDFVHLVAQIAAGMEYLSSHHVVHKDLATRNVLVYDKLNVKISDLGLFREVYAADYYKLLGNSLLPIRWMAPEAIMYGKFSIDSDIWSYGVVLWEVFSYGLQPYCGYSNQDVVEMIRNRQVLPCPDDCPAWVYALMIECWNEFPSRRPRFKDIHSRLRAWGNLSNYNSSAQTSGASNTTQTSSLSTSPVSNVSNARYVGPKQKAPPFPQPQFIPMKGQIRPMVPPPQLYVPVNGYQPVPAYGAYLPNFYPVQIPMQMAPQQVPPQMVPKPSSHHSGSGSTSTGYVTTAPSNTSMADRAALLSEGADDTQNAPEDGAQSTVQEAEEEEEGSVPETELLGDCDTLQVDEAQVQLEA
# UniProt Q15418, whole entry: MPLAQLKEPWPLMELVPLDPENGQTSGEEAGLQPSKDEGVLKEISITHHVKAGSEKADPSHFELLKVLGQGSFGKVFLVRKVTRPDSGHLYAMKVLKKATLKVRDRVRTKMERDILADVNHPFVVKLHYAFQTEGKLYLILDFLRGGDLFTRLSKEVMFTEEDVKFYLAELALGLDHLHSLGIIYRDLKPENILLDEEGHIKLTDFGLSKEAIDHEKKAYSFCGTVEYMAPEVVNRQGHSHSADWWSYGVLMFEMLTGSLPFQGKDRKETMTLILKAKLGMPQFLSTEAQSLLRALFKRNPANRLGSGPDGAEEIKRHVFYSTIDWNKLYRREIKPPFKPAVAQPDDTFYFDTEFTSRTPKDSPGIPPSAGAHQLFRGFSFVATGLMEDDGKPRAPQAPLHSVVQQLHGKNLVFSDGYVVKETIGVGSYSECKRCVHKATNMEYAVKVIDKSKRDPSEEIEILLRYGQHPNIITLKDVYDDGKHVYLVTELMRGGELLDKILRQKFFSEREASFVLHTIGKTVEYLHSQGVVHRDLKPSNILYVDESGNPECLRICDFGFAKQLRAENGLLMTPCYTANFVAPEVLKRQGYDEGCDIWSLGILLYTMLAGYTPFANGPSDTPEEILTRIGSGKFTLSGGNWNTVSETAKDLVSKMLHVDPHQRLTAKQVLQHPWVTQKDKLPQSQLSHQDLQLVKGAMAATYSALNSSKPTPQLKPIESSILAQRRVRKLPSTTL
# UniProt Q9NYA1, whole entry: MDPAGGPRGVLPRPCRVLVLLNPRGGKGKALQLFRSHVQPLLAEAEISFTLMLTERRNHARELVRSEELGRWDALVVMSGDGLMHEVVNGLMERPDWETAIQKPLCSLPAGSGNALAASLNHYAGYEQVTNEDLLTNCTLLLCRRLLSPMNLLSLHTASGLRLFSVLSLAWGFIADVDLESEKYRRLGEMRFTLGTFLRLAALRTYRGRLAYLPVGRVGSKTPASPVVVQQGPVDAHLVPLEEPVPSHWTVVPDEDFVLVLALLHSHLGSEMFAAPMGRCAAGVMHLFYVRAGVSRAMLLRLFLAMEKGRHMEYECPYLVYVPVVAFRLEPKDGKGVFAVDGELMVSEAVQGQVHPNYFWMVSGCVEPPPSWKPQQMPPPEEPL
# UniProt Q9Y6E0: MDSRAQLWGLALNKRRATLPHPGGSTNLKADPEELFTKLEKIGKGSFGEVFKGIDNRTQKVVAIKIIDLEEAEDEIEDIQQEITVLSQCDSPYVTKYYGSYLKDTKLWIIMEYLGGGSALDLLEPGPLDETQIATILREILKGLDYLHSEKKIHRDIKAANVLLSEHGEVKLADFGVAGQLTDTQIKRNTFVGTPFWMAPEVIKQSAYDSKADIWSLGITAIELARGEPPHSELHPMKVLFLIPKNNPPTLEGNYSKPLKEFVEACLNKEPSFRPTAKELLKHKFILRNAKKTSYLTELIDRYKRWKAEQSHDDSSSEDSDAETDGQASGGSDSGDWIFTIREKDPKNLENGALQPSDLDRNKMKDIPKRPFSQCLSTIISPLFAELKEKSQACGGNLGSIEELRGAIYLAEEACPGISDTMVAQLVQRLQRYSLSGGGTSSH
# The other results are listed elsewhere or left out. The calls rarely recur for the same compound in another form.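 Kinases were expressed as nanoluciferase fusions in K562 cells and luminescence was read every 4 h between 2 and 18 h as percent of control, DMSO set to 100% and a positive control to 0%. A time point counts as decreased when the signal drops significantly (2 sigma). The hit call is the authors' own, does not follow from the count of time points alone, and its rule is not shown.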
# What was measured:
# Test in all cases: kinase-Nluc reporter destabilization hit call (1 = scored as downregulated) (binary); higher = compound decreases kinase abundance
# Conditions in all cases: K562; 2-18 h
# [1] = biological target: RET (UniProt P07949)
# [2] = biological target: RET_M918T (clone: RET_mut) (UniProt P07949)
# [3] = biological target: RIOK1 (UniProt Q9BRS2)
# [4] = biological target: RIPK1 (UniProt Q13546)
# [5] = biological target: RIPK2 (UniProt O43353)
# [6] = biological target: ROR2 (UniProt Q01974)
# [7] = biological target: RPS6KA1 (UniProt Q15418)
# [8] = biological target: SPHK1 (UniProt Q9NYA1)
# [9] = biological target: SRC (UniProt P12931)
# [10] = biological target: STK24 (UniProt Q9Y6E0)
Compound,kinase-Nluc reporter destabilization hit call [1],kinase-Nluc reporter destabilization hit call [2],kinase-Nluc reporter destabilization hit call [3],kinase-Nluc reporter destabilization hit call [4],kinase-Nluc reporter destabilization hit call [5],kinase-Nluc reporter destabilization hit call [6],kinase-Nluc reporter destabilization hit call [7],kinase-Nluc reporter destabilization hit call [8],kinase-Nluc reporter destabilization hit call [9],kinase-Nluc reporter destabilization hit call [10]
COc1cc2c(cc1OC)[C@@H]1C(=O)c3ccc4c(c3O[C@@H]1CO2)C=CC(C)(C)O4 [Deguelin] (10 µM),inactive: 0,inactive: 0,inactive: 0,inactive: 0,inactive: 0,inactive: 0,inactive: 0,inactive: 0,inactive: 0,inactive: 0
C[C@@H](NC(=O)c1ncnc(N)c1Cl)c1ncc(C(=O)Nc2cc(C(F)(F)F)c(Cl)cn2)s1 (2.5 µM),inactive: 0,inactive: 0,inactive: 0,inactive: 0,inactive: 0,inactive: 0,inactive: 0,inactive: 0,inactive: 0,inactive: 0
O=C1OC(COc2ccccc2[N+](=O)[O-])CC1Cc1ccccc1 (stereo not drawn) (10 µM),inactive: 0,inactive: 0,inactive: 0,inactive: 0,inactive: 0,inactive: 0,inactive: 0,inactive: 0,inactive: 0,inactive: 0
CN1CCN(Cc2ccc(-c3cnc4[nH]cc(-c5ccc6[nH]ccc6c5)c4c3)cc2)CC1 (2.5 µM),inactive: 0,inactive: 0,inactive: 0,inactive: 0,inactive: 0,inactive: 0,inactive: 0,inactive: 0,inactive: 0,inactive: 0
COCCNc1cc(NC(=O)N2CCCc3cc(CN4CCOCC4=O)c(C=O)nc32)ncc1C#N (10 µM),inactive: 0,inactive: 0,inactive: 0,inactive: 0,inactive: 0,inactive: 0,inactive: 0,inactive: 0,inactive: 0,inactive: 0
O=C(COc1ccc(Cl)cc1)NC1CCC(NC(=O)COc2ccc(Cl)cc2)CC1 (stereo not drawn) [ISRIB (trans-isomer)] (10 µM),inactive: 0,inactive: 0,inactive: 0,inactive: 0,inactive: 0,inactive: 0,inactive: 0,inactive: 0,inactive: 0,inactive: 0
COc1cc2ncnc(Nc3cc(Br)c(O)c(Br)c3)c2cc1OC (2.5 µM),inactive: 0,inactive: 0,inactive: 0,–,inactive: 0,inactive: 0,inactive: 0,inactive: 0,inactive: 0,inactive: 0
CCNC(=O)Nc1ccc(-c2nc3c(c(N4CCOC[C@@H]4C)n2)CCN(C2COC2)C3)cc1 (2.5 µM),inactive: 0,inactive: 0,inactive: 0,inactive: 0,inactive: 0,inactive: 0,inactive: 0,inactive: 0,–,inactive: 0
COc1c(Nc2ncc(Cl)c(N[C@H]3[C@@H](C(N)=O)[C@@H]4C=C[C@H]3C4)n2)ccc2c1CC[C@@H](N1CCOCC1)CC2 (10 µM),inactive: 0,inactive: 0,inactive: 0,inactive: 0,inactive: 0,inactive: 0,inactive: 0,inactive: 0,inactive: 0,inactive: 0
CCOC(=O)c1c(N2CCc3ccc(OC)cc3C2)oc(C=C2C=Nc3ncccc32)c1O (10 µM),inactive: 0,inactive: 0,inactive: 0,inactive: 0,inactive: 0,inactive: 0,inactive: 0,inactive: 0,inactive: 0,inactive: 0
N#Cc1cnc(Nc2cc(NC[C@H]3CNCCO3)c(C(F)(F)F)cn2)cn1 (10 µM),inactive: 0,inactive: 0,inactive: 0,inactive: 0,inactive: 0,inactive: 0,inactive: 0,inactive: 0,inactive: 0,inactive: 0
CCOc1cc(N2CCC(O)CC2)ccc1Nc1ncc2c(n1)N(C1CCCC1)CCC(=O)N2C (2.5 µM),inactive: 0,inactive: 0,inactive: 0,inactive: 0,inactive: 0,inactive: 0,inactive: 0,inactive: 0,inactive: 0,inactive: 0
CS[C@@]1(C(=O)Nc2ccc3[nH]nc(-c4ccc(OC(C)C)nc4)c3c2)CCN(CC(=O)N2CC=C(c3ccc(-c4ncn(C)n4)cc3)CC2)C1 (2.5 µM),inactive: 0,inactive: 0,inactive: 0,inactive: 0,inactive: 0,inactive: 0,inactive: 0,inactive: 0,inactive: 0,inactive: 0
N#CC(=C(/N)Sc1ccccc1N)/C(C#N)=C(\N)Sc1ccccc1N (10 µM),inactive: 0,inactive: 0,inactive: 0,inactive: 0,inactive: 0,inactive: 0,inactive: 0,inactive: 0,inactive: 0,inactive: 0
O=c1cc(N2CCOCC2)oc2c(-c3cccc4c3sc3ccccc34)cccc12 (10 µM),inactive: 0,inactive: 0,inactive: 0,inactive: 0,inactive: 0,inactive: 0,inactive: 0,inactive: 0,inactive: 0,inactive: 0
C=CC(=O)N1CCC(c2ccc(C(N)=O)c(-c3ccc(Oc4ccccc4)cc3)n2)CC1 [Orelabrutinib] (2.5 µM),inactive: 0,inactive: 0,inactive: 0,inactive: 0,inactive: 0,inactive: 0,inactive: 0,inactive: 0,inactive: 0,inactive: 0
CNCc1cc(Oc2ccc3c(ccn3C(=O)Nc3cc(C(F)(F)F)n(C)n3)c2)ncn1 [Acrizanib] (10 µM),inactive: 0,inactive: 0,inactive: 0,inactive: 0,inactive: 0,inactive: 0,inactive: 0,inactive: 0,inactive: 0,inactive: 0
Cc1cnc(Nc2ccc(F)cc2Cl)nc1-c1c[nH]c(C(=O)N[C@H](CO)c2cccc(Cl)c2)c1 (10 µM),inactive: 0,inactive: 0,inactive: 0,inactive: 0,inactive: 0,inactive: 0,inactive: 0,inactive: 0,inactive: 0,inactive: 0
Cc1cc2c(F)c(Oc3ncnn4cc(OC[C@@H](C)OC(=O)[C@H](C)N)c(C)c34)ccc2[nH]1 [Brivanib (alaninate)] (10 µM),inactive: 0,inactive: 0,inactive: 0,inactive: 0,inactive: 0,inactive: 0,inactive: 0,inactive: 0,inactive: 0,inactive: 0
COc1cc2nc(-c3cc(F)ccc3O)nc(N[C@@H]3CNC[C@H]3C(C)(C)O)c2cc1OC (2.5 µM),inactive: 0,inactive: 0,inactive: 0,inactive: 0,inactive: 0,inactive: 0,inactive: 0,inactive: 0,inactive: 0,inactive: 0
Nc1ccc(Sc2nc3ccccc3s2)c(Cl)c1 [KRAS inhibitor-9] (10 µM),inactive: 0,inactive: 0,inactive: 0,inactive: 0,inactive: 0,inactive: 0,inactive: 0,inactive: 0,inactive: 0,inactive: 0
CCCCNc1ncc(C(=O)NCc2ccc(-n3ccnc3)cc2)c(NC2CCC(O)CC2)n1 (stereo not drawn) (10 µM),inactive: 0,inactive: 0,inactive: 0,inactive: 0,inactive: 0,inactive: 0,inactive: 0,inactive: 0,inactive: 0,inactive: 0
CC(ONC(=O)c1cc(C(F)(F)F)cc(C(F)(F)F)c1)C(=O)Nc1ccc(Cl)cc1 (stereo not drawn) (2.5 µM),inactive: 0,inactive: 0,inactive: 0,inactive: 0,inactive: 0,inactive: 0,inactive: 0,inactive: 0,inactive: 0,inactive: 0
NC(=O)c1c(NC(=O)C2CC2)sc2c1CCCC2 (10 µM),inactive: 0,inactive: 0,inactive: 0,inactive: 0,inactive: 0,inactive: 0,inactive: 0,inactive: 0,inactive: 0,inactive: 0
Cc1cccc(CC(=O)N2CCc3c2ccc(-c2cn(C)c4ncnc(N)c24)c3F)n1 (10 µM),inactive: 0,inactive: 0,inactive: 0,inactive: 0,inactive: 0,inactive: 0,inactive: 0,active: 1,inactive: 0,inactive: 0
CCOC(=O)c1c(Nc2ccccc2Cl)oc(/C=C2\C=Nc3ncccc32)c1O (10 µM),inactive: 0,inactive: 0,inactive: 0,inactive: 0,inactive: 0,inactive: 0,inactive: 0,inactive: 0,inactive: 0,inactive: 0
COC(=O)N1CCN(C2CCC(Nc3nc(Nc4cnn(C)c4)nc4ccc(CC#N)nc34)CC2)CC1 (stereo not drawn) (10 µM),inactive: 0,inactive: 0,inactive: 0,inactive: 0,inactive: 0,inactive: 0,inactive: 0,inactive: 0,inactive: 0,inactive: 0

# A few values from the entries so far:
# Entry for `CCOc1cc(N2CCC(O)CC2)ccc1Nc1ncc2c(n1)N(C1CCCC1)CCC(=O)N2C` (2.5 µM) under kinase-Nluc reporter destabilization hit call [7]: inactive: 0
# Entry for `CNCc1cc(Oc2ccc3c(ccn3C(=O)Nc3cc(C(F)(F)F)n(C)n3)c2)ncn1` [Acrizanib] (10 µM) under kinase-Nluc reporter destabilization hit call [6]: inactive: 0
